PubChem BioAssay AID1224827 – NIAID – 2016
Here is an unselected part of about 3,800 reagents. Over the whole deposit, about 2,200 (57%) got an active call. 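Active means a strong reporter change in either direction; calls are per siRNA, not per gene; qiagen siRNAs gave weaker effects.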 A number with no mark means an inactive call. The numbers tell different reagents against one gene apart. Not all columns of the deposit are shown.

Test: 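Retest primary hits on a TNF reporter with six siRNAs per gene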 (follow-up of hits)
System: RAW264.7 G9 mouse macrophage reporter clone
Reagents: single siRNA against mouse genes, 100 nM siRNA
Duration: siRNA for 2 days, then LPS about 16 h
Treatment: bacterial lipopolysaccharide (LPS), 10 ng/ml, cells fixed after overnight (about 16 h) stimulation
Read-out: 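Imaged nuclear TNF reporter intensity, background removed, scaled per plate and to non-targeting control wells, as z-scores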
Direction: TNF reporter z-score, mean: higher = stronger Tnf promoter reporter signal; gene median z, three same-vendor siRNAs: higher = stronger Tnf reporter signal for the gene
Call rule: 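Active siRNA: replicate-mean z-score of 2 or more, or -2 or less; no calls for control wells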

no.	gene	siRNA no.	TNF reporter z-score, mean	gene median z, three same-vendor siRNAs
1	2410018L13Rik	1	0.419	-2.28
2	2410018L13Rik	2	-2.28 (active)	-2.28
3	2410018L13Rik	3	-5.07 (active)	-2.28
4	2410018L13Rik	4	0.048	-1.19
5	2410018L13Rik	5	-0.716	-1.19
6	2410018L13Rik	6	-2.09 (active)	-1.19
7	Rab8a	1	-0.983	-2.69
8	Rab8a	2	-2.5 (active)	-2.69
9	Rab8a	3	-3.25 (active)	-2.69
10	Rab8a	4	-0.122	-0.514
11	Rab8a	5	-0.0837	-0.514
12	Rab8a	6	-1.04	-0.514

Limited to “gene median z, three same-vendor siRNAs”, for 3 of the entries above:
Rab8a #4: -0.514
Rab8a #5: -0.514
Rab8a #6: -0.514

More reagents follow:
no.	gene	siRNA no.	TNF reporter z-score, mean	gene median z, three same-vendor siRNAs
13	Rdh1	1	2.07 (active)	-0.992
14	Rdh1	2	-0.992	-0.992
15	Rdh1	3	-4.09 (active)	-0.992
16	Rdh1	4	3.12 (active)	0.437
17	Rdh1	5	0.974	0.437
18	Rdh1	6	-2.08 (active)	0.437
19	Inka2	1	-0.814	-4.5
20	Inka2	2	-4.5 (active)	-4.5
21	Inka2	3	-5.95 (active)	-4.5
22	Inka2	4	4.44 (active)	0.549
23	Inka2	5	-0.0428	0.549
24	Inka2	6	0.0429	0.549
